Results taken from the supplement of paper PMC3334620.
In all, about 33,000 sequences were measured (“E-score (-0.5 to 0.5)”: median about -8e-05, highest 2% from about 0.23 on). The list shows a part of the results.

Molecular target: T1, Nrg2 (UniProt P38082)
T1 sequence: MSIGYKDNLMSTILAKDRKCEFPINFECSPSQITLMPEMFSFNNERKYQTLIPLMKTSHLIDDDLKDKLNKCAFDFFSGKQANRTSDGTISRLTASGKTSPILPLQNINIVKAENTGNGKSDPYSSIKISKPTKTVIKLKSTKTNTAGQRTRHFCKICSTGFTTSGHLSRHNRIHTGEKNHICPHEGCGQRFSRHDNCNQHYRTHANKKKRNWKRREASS
Assay: PBM E-score (8-mer binding enrichment) (E-score (-0.5 to 0.5)); higher = stronger / more preferred TF binding
Details: protein concentration: 100 nM; construct: GST-full length
Method in brief: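 GST-tagged yeast TFs (full-length or DNA-binding domain) were made by PURExpress in vitro transcription/translation and applied at about 100-200 nM to universal all-10-mer Agilent arrays. The arrays were made double-stranded by primer extension, on fresh or once-stripped slides. Bound protein was detected with fluorescent anti-GST, and scans were normalised with masliner. Each ungapped eight-base word, pooled with its reverse complement, received an E-score (modified Wilcoxon-Mann-Whitney statistic) from the Universal PBM Analysis Suite.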

Going from CTAACCCA to CTTTAGGA, the “PBM E-score” value falls from -0.00624 to -0.0706.

Compared with TGTTGAAA, CGGCCCCC is lower in “PBM E-score” value: 0.19 for the first, -0.259 for the second.

First: ATGAGCTA
Second: AAGCTGTG
The “PBM E-score” value of the first is higher: 0.069 for the first, 0.00179 for the second.

Compared with GGGATTTA, GTTAAATA is lower in “PBM E-score” value: -0.00047 for the first, -0.0438 for the second.

Going from ACCATCAT to GAACGGCA, the “PBM E-score” value rises from -0.0921 to 0.08.

Going from CAGCACGA to CACGTAAC, the “PBM E-score” value falls from 0.0405 to -0.109.

Going from GCCGCTAC to AGTATGTG, the “PBM E-score” value falls from 0.117 to 0.0654.

Going from CACTATCA to TCTTTGAA, the “PBM E-score” value falls from 0.0367 to -0.105.

First: GAACAAAA
Second: AACCAAAA
The “PBM E-score” value of the first is higher: 0.195 for the first, 0.184 for the second.

Compared with CAGTTCAA, CCCACATA is lower in “PBM E-score” value: 0.0698 for the first, -0.117 for the second.

First: ACCCAGGA
Second: ATTTCTAG
The “PBM E-score” value of the first is lower: -0.227 for the first, 0.0904 for the second.

First: CCAGCACA
Second: CGCTCCGC
The “PBM E-score” value of the first is higher: -0.0581 for the first, -0.116 for the second.

Going from GTAGTGAA to TAGGCTAA, the “PBM E-score” value falls from 0.0655 to -0.13.

Compared with CACGCGAA, AATCTGCA is higher in “PBM E-score” value: -0.135 for the first, 0.0698 for the second.

First: CACAAGTG
Second: GTGTATGA
The “PBM E-score” value of the first is lower: -0.208 for the first, -0.0712 for the second.

First: ACGGTTAA
Second: ATGATCGG
The “PBM E-score” value of the first is lower: -0.153 for the first, 0.0383 for the second.

Compared with ATTTATGA, ATCCTTTA is lower in “PBM E-score” value: 0.123 for the first, -0.0227 for the second.

Compared with AGAGGTAT, CGTTTGAC is lower in “PBM E-score” value: 0.146 for the first, 0.0838 for the second.

Compared with AAATTATC, AGATTGAC is lower in “PBM E-score” value: 0.146 for the first, 0.0498 for the second.

First: GTGTAGGA
Second: GACGTAAC
The “PBM E-score” value of the first is higher: 0.0152 for the first, -0.0563 for the second.

Going from GAAGGATA to ACAGGCGC, the “PBM E-score” value falls from -0.0924 to -0.16.

Going from AGCAGAAG to TCGTATCA, the “PBM E-score” value rises from -0.0369 to 0.0635.

Going from GAGCGCAA to GCGGGTTA, the “PBM E-score” value rises from -0.0151 to 0.143.

First: CCGCGAGA
Second: CGAGTCAC
The “PBM E-score” value of the first is higher: -0.0513 for the first, -0.151 for the second.

First: TTCCCGAA
Second: TCCTACGA
The “PBM E-score” value of the first is higher: 0.0661 for the first, -0.256 for the second.

Going from AGTGGGGA to AAGCTCTC, the “PBM E-score” value falls from 0.0197 to -0.148.

Compared with AGTTACTC, ACTGTGTA is higher in “PBM E-score” value: 0.0176 for the first, 0.128 for the second.

Compared with ATATTTTG, ACGCTATA is lower in “PBM E-score” value: 0.00867 for the first, -0.104 for the second.

Going from CCTTTTAG to AAATTGAC, the “PBM E-score” value rises from -0.209 to 0.0103.

Going from ATATATAA to ATGTCTCA, the “PBM E-score” value falls from 0.24 to -0.00934.

Compared with CCCGTATA, CCACACTC is lower in “PBM E-score” value: 0.1 for the first, -0.105 for the second.

First: ACTCTGCT
Second: ATGCGAGC
The “PBM E-score” value of the first is lower: -0.0865 for the first, 0.0133 for the second.

Compared with ATACAAAA, ACACTTTC is lower in “PBM E-score” value: 0.218 for the first, 0.0771 for the second.

Compared with GCACGTAC, ACAAAGAC is higher in “PBM E-score” value: -0.125 for the first, -0.0259 for the second.

Going from CTCTAAGC to GCTGTGTA, the “PBM E-score” value falls from 0.0189 to -0.051.

First: CATAGGGA
Second: CCCCCTCA
The “PBM E-score” value of the first is higher: 0.0275 for the first, -0.379 for the second.

First: CCGAATAG
Second: ACCTAGGC
The “PBM E-score” value of the first is higher: -0.0206 for the first, -0.182 for the second.

Going from CATCAGTC to ACGTGGAT, the “PBM E-score” value rises from -0.0546 to -0.0278.

First: ACGCAGTG
Second: ACCCCAAC
The “PBM E-score” value of the first is lower: -0.256 for the first, 0.0849 for the second.

Going from ATGTACAA to ACGGTACC, the “PBM E-score” value falls from 0.0611 to 0.051.

First: ACAATATA
Second: CTCCAGTA
The “PBM E-score” value of the first is higher: 0.227 for the first, -0.0168 for the second.

Going from CTATGCAA to CGCTCCTC, the “PBM E-score” value falls from 0.075 to -0.334.

First: ACTGCCAT
Second: TAACCAGA
The “PBM E-score” value of the first is higher: 0.102 for the first, -0.104 for the second.

First: ACCGGGAT
Second: AGTCATAC
The “PBM E-score” value of the first is higher: 0.00356 for the first, -0.0325 for the second.

Compared with ACCCTACG, CGTTCCGA is lower in “PBM E-score” value: 0.0347 for the first, -0.143 for the second.

Going from GCACATCC to GGGAGGCA, the “PBM E-score” value falls from -0.0672 to -0.214.

Going from ATCCTCTC to GTCGCAAA, the “PBM E-score” value rises from -0.0127 to 0.0589.
